The other results are listed elsewhere or left out. These are raw signals, not scaled to a control.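 Primary screen: polymyxin B was added at a level permeabilizing Salmonella outer membranes while sparing inner membranes. DMSO wells, both with and without polymyxin B, established maximum growth. Plate-to-plate variation meant each plate was ranked on its own, and the lowest-OD600 compounds were selected as hits.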
System: Salmonella enterica serovar Typhimurium SL1344
Assay: bacterial growth OD600 after 18 h with compound and polymyxin B; higher = more bacterial growth (less inhibition)
Conditions: 50 µM, Mueller-Hinton broth

COCCN1C(=O)CC(CC(=O)N(C)Cc2ccc(OC)c(OC)c2)(c2ccccc2F)C1=O (configuration not stated)
bacterial growth OD600 (polymyxin B 0.75 µg/mL): 0.809

Cn1ccnc1CNC(=O)c1cc(COc2ccc3c(c2)OCO3)[nH]n1
bacterial growth OD600 (polymyxin B 1 µg/mL): 1.14

CC1CCCN(C(=O)c2coc(COc3cccc4cnccc34)n2)C1 (configuration not stated)
bacterial growth OD600 (polymyxin B 1 µg/mL): 0.902

O=C(c1cn(CC2COc3ccccc3O2)nn1)N1CCCC1 (configuration not stated)
bacterial growth OD600 (polymyxin B 1 µg/mL): 0.879

O=C(NCCN1CCOCC1)c1ccc(N2CCC(N3CCOc4ccc(Cl)cc4C3)CC2)cc1
bacterial growth OD600 (polymyxin B 0.75 µg/mL): 0.794

COCC(=O)N1CCC(Oc2ccccc2C(=O)NCCC2=CCCCC2)CC1
bacterial growth OD600 (polymyxin B 1 µg/mL): 0.01

CC(=O)NCC(=O)NCC1Cc2cc(-c3ccc(C(C)=O)s3)cc(Cl)c2O1 (configuration not stated)
bacterial growth OD600 (polymyxin B 0.75 µg/mL): 0.882

O=C(Cn1cnc2ccccc21)N1CCCC(Nc2ccc3c(c2)OCCO3)C1 (configuration not stated)
bacterial growth OD600 (polymyxin B 1 µg/mL): 0.959

O=C(NCc1cccc(C(F)(F)F)c1)C1CCC(=O)N(C2CCCCCC2)C1 (configuration not stated)
bacterial growth OD600 (polymyxin B 1 µg/mL): 0.914

CN(Cc1cnccn1)C(=O)CC(c1ccccc1)c1ccccc1Cl (configuration not stated)
bacterial growth OD600 (polymyxin B 1 µg/mL): 0.742

c1cncc(-c2ncc3c(n2)CCCC3NCc2ccncc2)c1 (configuration not stated)
bacterial growth OD600 (polymyxin B 0.75 µg/mL): 0.864

Cc1cccc2nc(CN(C)Cc3cnc(S(C)(=O)=O)n3CC3CCCO3)[nH]c12 (configuration not stated)
bacterial growth OD600 (polymyxin B 1 µg/mL): 1.03

CN(Cc1ccon1)c1ccc(C(=O)N2CCC(CCn3cccn3)CC2)cn1
bacterial growth OD600 (polymyxin B 1 µg/mL): 1.28

COCc1ccc(C(=O)Nc2ccc(-c3nc(CNC(=O)c4ccccc4SC)c(C)o3)cc2)o1
bacterial growth OD600 (polymyxin B 0.75 µg/mL): 0.841

CCC(CC)NCc1cccnc1Oc1ccc(C)nc1
bacterial growth OD600 (polymyxin B 0.75 µg/mL): 0.947

Cn1nccc1C(=O)N1CCC(C2CCN(Cc3cccnc3)CC2)C1 (configuration not stated)
bacterial growth OD600 (polymyxin B 0.75 µg/mL): 0.858

O=C1NCCN1CCNc1ccc(-c2nc(-c3ccccc3F)no2)cn1
bacterial growth OD600 (polymyxin B 1 µg/mL): 0.917

COc1ccc(C(=O)N2CCCC(Nc3ccc(C)c(C)c3)C2)cc1OC (configuration not stated)
bacterial growth OD600 (polymyxin B 1 µg/mL): 0.863

CCOC(=O)C1(CCOc2ccccc2)CCN(CC2CC2)CC1
bacterial growth OD600 (polymyxin B 1 µg/mL): 0.877

O=C(NC1CCc2ccccc21)C1CC(CCc2ccccc2)=NO1 (configuration not stated)
bacterial growth OD600 (polymyxin B 0.75 µg/mL): 0.607

COc1ccc(C(CC(=O)N(C)C)c2ccccc2)cc1 (configuration not stated)
bacterial growth OD600 (polymyxin B 1 µg/mL): 0.829

COc1ccc(-c2cnnc(N3CC[C@@H]4CCCC[C@H]4C3)n2)cc1F
bacterial growth OD600 (polymyxin B 0.75 µg/mL): 0.166

Source: the supplement of paper PMC12889115
